The values below come from PMC7302878.

The assay addresses FT-AGIA-AirID (Arabidopsis), Q9SXZ2. The experiment in a line: proximity labelling; co-translational: FT-AirID co-synthesised with AGIA-FD or AGIA-DHFR in the wheat cell-free system with 500 nM biotin, 16 hr at 16 °C; immunoblotting. Conditions: remark: other sources report otherwise.

Results are given in words; binding and its absence hold for the method and conditions named. Binding seen in cells or lysates may run through a third protein. A yes stands for co-enrichment or nearness to the bait. Other partners may have been found.

B1: AGIA-FD, Q84JK2 1-285 (protein)
chain: MLSSAKHQRNHRLSATNKNQTLTKVSSISSSSPSSSSSSSSTSSSSPLPSQDSQAQKRSLVTMEEVWNDINLASIHHLNRHSPHPQHNHEPRFRGQNHHNQNPNSIFQDFLKGSLNQEPAPTSQTTGSAPNGDSTTVTVLYSSPFPPPATVLSLNSGAGFEFLDNQDPLVTSNSNLHTHHHLSNAHAFNTSFEALVPSSSFGKKRGQDSNEGSGNRRHKRMIKNRESAARSRARKQAYTNELELEVAHLQAENARLKRQQDQLKMAAAIQQPKKNTLQRSSTAPF
For the molecule B1, the binding entry is given as “binds”.
